{"source": "the supplement of paper PMC7238544", "note": "± gives the standard deviation of the averaged measurements. Some of the results follow. The data scatter; read single values as rough.", "data": [{"test_system": "hAMSC donor 2", "experiment": "transfection efficiency (EGFP+ cells / Hoechst count) fold change vs vehicle control (ratio); hAMSC are human adipose-derived mesenchymal stem cells given an EGFP-luciferase plasmid by lipofection; higher = enhanced transfection", "settings": "priming compound concentration 1.7 µM", "values": [{"smiles": "O=C1NC(=O)C(c2ccccc2)(c2ccccc2)N1", "note": "[Dilantin]", "transfection efficiency": "1.12 ± 0.0084"}, {"smiles": "CC(C)C[C@H](NC(=O)[C@@H](COC(C)(C)C)NC(=O)[C@H](Cc1ccc(O)cc1)NC(=O)[C@H](CO)NC(=O)[C@H](Cc1c[nH]c2ccccc12)NC(=O)[C@H](Cc1cnc[nH]1)NC(=O)[C@@H]1CCC(=O)N1)C(=O)N[C@@H](CCCNC(=N)N)C(=O)N1CCC[C@H]1C(=O)NNC(N)=O", "note": "[Goserelin acetate]", "transfection efficiency": "1.03 ± 0.032"}, {"smiles": "O=C1CN(/N=C/c2ccc(-c3ccc([N+](=O)[O-])cc3)o2)C(=O)N1", "note": "[Dantrolene sodium]", "transfection efficiency": "0.966 ± 0.084"}, {"smiles": "CCN(CC)CC(=O)Nc1c(C)cccc1C", "note": "[Lidocaine]", "transfection efficiency": "0.866 ± 0.017"}, {"smiles": "C=CC[C@@H]1/C=C(\\C)C[C@H](C)C[C@H](OC)[C@H]2O[C@@](O)(C(=O)C(=O)N3CCCC[C@H]3C(=O)O[C@H](/C(C)=C/[C@@H]3CC[C@@H](O)[C@H](OC)C3)[C@H](C)[C@@H](O)CC1=O)[C@H](C)C[C@@H]2OC", "note": "[Tacrolimus]", "transfection efficiency": "0.988 ± 0.041"}, {"smiles": "CC[C@@H](CO)NCCN[C@@H](CC)CO", "note": "[Ethambutol]", "transfection efficiency": "0.994 ± 0.097"}, {"smiles": "O=C(O)CCCc1ccccc1", "note": "[4-Phenylbutyric acid]", "transfection efficiency": "1.21 ± 0.29"}, {"smiles": "O=c1c(-c2ccccc2)c1-c1ccccc1", "note": "[Diphenylcyclopropenone]", "transfection efficiency": "1.38 ± 0.66"}, {"smiles": "CC(C)(C(=O)c1cccnc1)c1cccnc1", "note": "[Metyrapone]", "transfection efficiency": "1.029 ± 0.0044"}, {"smiles": "COc1c(N2CCNC(C)C2)c(F)cc2c(=O)c(C(=O)O)cn(C3CC3)c12", "note": "(stereo unspecified) [Gatifloxacin]", "transfection efficiency": "1.12 ± 0.36"}, {"smiles": "Cc1cnc(C(=O)NCCc2ccc(S(=O)(=O)NC(=O)NC3CCCCC3)cc2)cn1", "note": "[Glipizide]", "transfection efficiency": "0.894 ± 0.069"}]}]}
